In paper PMC7819943, “Rice protein-binding microarrays: a tool to detect cis-acting elements near promoter regions in rice”:
The list shows a part of the results.

Molecular target: T1, OsSMF1 (Oryza sativa, UniProt Q6ZLB0 1-436)
T1 sequence: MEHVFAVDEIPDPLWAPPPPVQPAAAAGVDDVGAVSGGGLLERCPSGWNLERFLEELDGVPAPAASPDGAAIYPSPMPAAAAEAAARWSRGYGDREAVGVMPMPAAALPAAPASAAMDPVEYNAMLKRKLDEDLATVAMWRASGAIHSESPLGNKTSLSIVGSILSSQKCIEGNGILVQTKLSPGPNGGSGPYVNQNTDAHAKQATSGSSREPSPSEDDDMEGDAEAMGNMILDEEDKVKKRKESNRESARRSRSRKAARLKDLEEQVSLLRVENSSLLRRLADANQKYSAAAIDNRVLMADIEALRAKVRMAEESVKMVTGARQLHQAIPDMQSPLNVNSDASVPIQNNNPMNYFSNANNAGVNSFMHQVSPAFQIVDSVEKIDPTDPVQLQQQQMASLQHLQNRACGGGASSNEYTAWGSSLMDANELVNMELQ
Assay: protein-binding microarray (RPBM); PBS, 2% BSA, 51.3 ng/ul salmon testes DNA, 50 uM zinc acetate, 200 nM TF, 25 C, 1 h; high values mean tight binding
Conditions: protein: recombinant; tags: N-terminal polyhistidine and DsRed monomer fusion (pET32a); chain copies: 2; label: CyDye5-dUTP incorporated in the synthesized complementary strand; 3' TTTTT single-stranded linker to array surface; dsDNA, one strand shown
Outline: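 Per-feature fluorescence intensity (arbitrary units), read on an Axon 4000B scanner, is the binding signal. Transcription factors carrying an N-terminal polyhistidine tag and DsRed fusion were expressed in E. coli BL21-CodonPlus and purified on Ni–NTA. A custom Agilent array, made double-stranded by primer extension with Cy5-dUTP and blocked with 2% BSA, was incubated with 200 nM protein in PBS, 2% BSA, salmon testes DNA and 50 µM zinc acetate at 25 °C for 1 h and then washed.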

| Sequence | binding signal |
| --- | --- |
| TTGTTGAGTTCGGTGCCCCATATCCCTCAATCTCGGGTGCCGGAGTCACCTAGTGCAG | 4530 fluorescence intensity (a.u.) |
| TCCAGCGGTGGTTGAACATGTCTTTTGTTGTGAATATTTACGGAGTCACCTAGTGCAG | 3260 fluorescence intensity (a.u.) |
| GATGGAGGCGATGTAAACACAGATGACGCCGACGCCTGCCCGGAGTCACCTAGTGCAG | 4730 fluorescence intensity (a.u.) |
| CACGGTGGTCCTGCCTTGTGCCACCATTGCAAGGGGCTCTCGGAGTCACCTAGTGCAG | 3770 fluorescence intensity (a.u.) |
| CAATCTGCCACGCGTCATCGATCCGTCCCCTCTTCCGCTTCGGAGTCACCTAGTGCAG | 19400 fluorescence intensity (a.u.) |
| CAAGTAATAAGTAGTAACCGGCTACGTGGTTGTGCCGTTACGGAGTCACCTAGTGCAG | 4100 fluorescence intensity (a.u.) |
| AGTAGTGAGGTTGAGGCATAAGTACATTGAATTGAATTGACGGAGTCACCTAGTGCAG | 44100 fluorescence intensity (a.u.) |
| ACTCGTCGAATTCTCCACACGCGTGAATTCATTTCACCACCGGAGTCACCTAGTGCAG | 3350 fluorescence intensity (a.u.) |
| GTGCAGTACCTTCCATACCACCTCAAGGATACTAAAATCACGGAGTCACCTAGTGCAG | 26400 fluorescence intensity (a.u.) |
| GCCCGCGACGTCACGCCCATGTCACTTTCGTGCAATGGTTCGGAGTCACCTAGTGCAG | 8610 fluorescence intensity (a.u.) |
| CGAGGTTGCCCCTCCCCTCTCCTACGTGGTCGTGCCCCAACGGAGTCACCTAGTGCAG | 5410 fluorescence intensity (a.u.) |
| CAATTTAAGACCGCTGTGTCACTAATGTAATCGATCAACTCGGAGTCACCTAGTGCAG | 4990 fluorescence intensity (a.u.) |
| CCCCGCATAAACACTCTCACTGACGTGTGGGCCCCGCAGACGGAGTCACCTAGTGCAG | 7980 fluorescence intensity (a.u.) |
| GTACCTCCACCTGTGCCGCCCGTTCGCAGCAACGCGGCGGCGGAGTCACCTAGTGCAG | 27400 fluorescence intensity (a.u.) |
| AGGTGTACTTCTACGTGTACTACGTCGTTAAGGTCCTCGCCGGAGTCACCTAGTGCAG | 34900 fluorescence intensity (a.u.) |
| TCGATCATACATATCGATCTGCAGCTAGTTCTCGCACGAGCGGAGTCACCTAGTGCAG | 4120 fluorescence intensity (a.u.) |
| AGCGAAAGAATGTTTCAGTTCATTGCAACATTAGATCTATCGGAGTCACCTAGTGCAG | 33700 fluorescence intensity (a.u.) |
| GCACACTCTAATTTCCTTTAGGCTGCGTTTCTAGTGTAGTCGGAGTCACCTAGTGCAG | 28400 fluorescence intensity (a.u.) |
| TGTACATTGTTTGAACTAATCAGTAATCATCACAGTGGTTCGGAGTCACCTAGTGCAG | 3160 fluorescence intensity (a.u.) |
| GTTAGCACTGGAATCTTTACGTGTGACATGTGTAAAAGTTCGGAGTCACCTAGTGCAG | 3380 fluorescence intensity (a.u.) |
| GGAAACATGAGGGCGTGGGCGGCATATGGGAGATCGTGGGCGGAGTCACCTAGTGCAG | 3160 fluorescence intensity (a.u.) |

| Sequence | binding signal |
| --- | --- |
| GGCGGGGCCGAAGCTGACGGGCTCCTCGCCGTCCTTCACGCGGAGTCACCTAGTGCAG | 3330 fluorescence intensity (a.u.) |
| GGGCCCCTCCCAAATCTCCCATGGTTCCATCCATCCCCATCGGAGTCACCTAGTGCAG | 3890 fluorescence intensity (a.u.) |
| CGGCGGCGGCGGGGTCGATGCGTGACGGCGGCGGCCGGCTCGGAGTCACCTAGTGCAG | 17300 fluorescence intensity (a.u.) |
| CCCATGGAAGCTGGGGTGTTACGCATGATGATAGAGGTGTCGGAGTCACCTAGTGCAG | 3880 fluorescence intensity (a.u.) |
| TTATTTCTACTGCCACGTAGGTGCCACGTCAACGCCACGTCGGAGTCACCTAGTGCAG | 37400 fluorescence intensity (a.u.) |
| AATCATAAATTTGTGGGTGAACCTTCTACACACACGTCATCGGAGTCACCTAGTGCAG | 11200 fluorescence intensity (a.u.) |
| ATTCGCCTCCGCCGCCCTTCTGGCCACGTCATCTTATTAACGGAGTCACCTAGTGCAG | 11500 fluorescence intensity (a.u.) |
| GCATACCATGTCGATACGTGACGTATATCGAAGGGTAGAGCGGAGTCACCTAGTGCAG | 5500 fluorescence intensity (a.u.) |
| CATTATCGTCGTCGTCGTCGTCGTAGTCATGTCGTGGGGCCGGAGTCACCTAGTGCAG | 3820 fluorescence intensity (a.u.) |
| GTCGAATCGCACGCACACCTACTCGCGCATCTCATCCTGGCGGAGTCACCTAGTGCAG | 27100 fluorescence intensity (a.u.) |
| CTTACAGTTTTATTACTCGTGCTGACGTAGATAATCTTATCGGAGTCACCTAGTGCAG | 12600 fluorescence intensity (a.u.) |
| AGGCTGAGCGAATGTTTTGTTTGTTTTGCTCGTCAATTCTCGGAGTCACCTAGTGCAG | 29400 fluorescence intensity (a.u.) |
| GGCAGCCATTCCCACCGCGCCACACGCGCCACACGCCCCGCGGAGTCACCTAGTGCAG | 3240 fluorescence intensity (a.u.) |
| CTCTGCACAATTGCACCAACCCCAAAGCTTGGCTAAGCTCCGGAGTCACCTAGTGCAG | 51000 fluorescence intensity (a.u.) |
| CCGCCGCCCTCGCCGCTGCCACGCCGCCGCCGCCGCCCTTCGGAGTCACCTAGTGCAG | 4700 fluorescence intensity (a.u.) |
| ATATGGACAAAATCAGTATTTGCAACCTTGATTGGACTGGCGGAGTCACCTAGTGCAG | 3450 fluorescence intensity (a.u.) |
| ATGAACATGACTGGGACCATCCCTGATGATCTATCGTCACCGGAGTCACCTAGTGCAG | 5160 fluorescence intensity (a.u.) |
| GGAGGAGGATCATATCAGGCGACGATCGATGGCGCTTTCGCGGAGTCACCTAGTGCAG | 3170 fluorescence intensity (a.u.) |
| ATGGAGTATATGACTACTGCATGCGTCACCAAGATAAGCACGGAGTCACCTAGTGCAG | 5240 fluorescence intensity (a.u.) |
| CTTGATTGCTGATTAGTCAGCTGCCTGCGCTGCGTTCTCCCGGAGTCACCTAGTGCAG | 7180 fluorescence intensity (a.u.) |
| CATTCACTTTTCCATTTCTGATGCCATGGGTCTTATTCCACGGAGTCACCTAGTGCAG | 3200 fluorescence intensity (a.u.) |

Looked up one by one from above (3):

| Sequence | binding signal |
| --- | --- |
| GGCGGGGCCGAAGCTGACGGGCTCCTCGCCGTCCTTCACGCGGAGTCACCTAGTGCAG | 3330 fluorescence intensity (a.u.) |
| CTCTGCACAATTGCACCAACCCCAAAGCTTGGCTAAGCTCCGGAGTCACCTAGTGCAG | 51000 fluorescence intensity (a.u.) |
| ATGGAGTATATGACTACTGCATGCGTCACCAAGATAAGCACGGAGTCACCTAGTGCAG | 5240 fluorescence intensity (a.u.) |
